Test results: patent US6838550
Results are given in words; binding and its absence hold for the method and conditions named. Some binding calls cover weakened binding; strength is not graded here.

Molecular target: Gal4BD-DR3 (GAL4 DNA-binding domain fused to the intracellular domain of DR3) (UniProt P04386)
Assay: yeast two-hybrid, Gal4BD-DR3 bait against HeLa cDNA library

B1: human SODD (Suppressor of Death Domain) polypeptide, SEQ ID NO:2 (protein)
chain: MSALRRSGYGPSDGPSYGRYYGPGGGDVPVHPPPPLYPLRPEPPQPPISWRVRGGGPAETTWLGEGGGGDGYYPSGGAWPEPGRAGGSHQEQPPYPSYNSNYWNSTARSRAPYPSTYPVRPELQGQSLNSYTNGAYGPTYPPGPGANTASYSGAYYAPGYTQTSYSTEVPSTYRSSGNSPTPVSRWIYPQQDCQTEAPPLRGQVPGYPPSQNPGMTLPHYPYGDGNRSVPQSGPTVRPQEDAWASPGAYGMGGRYPWPSSAPSAPPGNLYMTESTSPWPSSGSPQSPPSPPVQQPKDSSYPYSQSDQSMNRHNFPCSVHQYESSGTVNNDDSDLLDSQVQYSAEPQLYGNATSDHPNNQDQSSSLPEECVPSDESTPPSIKKIIHVLEKVQYLEQEVEEFVGKKTDKAYWLLEEMLTKELLELDSVETGGQDSVRQARKEAVCKIQAILEKLEKKGL
For B1, the binding was “binds”.
